# Data from patent US20200163885A1, “COMPOSITION FOR DELIVERING PHYSIOLOGICALLY ACTIVE INGREDIENTS INTO BLOOD VESSEL” (LEMONEX INC., priority 2017, published 2020).
# At least one structure is not confirmed: it was looked up by name or label, or the drawing left a doubt.
# Test: Release of bioactive materials from loaded porous silica particles
# Format: physicochemical
# Details: retinoic acid loaded on positively charged particles; PBS (pH 7.4) containing 5% ethanol, 37° C.
# Method: 5 mg of porous silica particles loaded with doxorubicin ([…]) was dispersed in SBF (pH 7.4) (total volume: 1 ml), and then the solution was placed in a 1.5 ml tube and maintained in a dynamic condition of performing horizontal agitation at 20 rpm and 37° C. At each time point, the porous silica solution loaded with doxorubicin was settled using a centrifuge, and the absorbance (λa,b=480 nm) of the supernatant was measured to determine an amount of released doxorubicin.
# 10 mg of porous silica particles loaded with doxorubicin (2 mg) were dispersed in SBF (pH 7.4) inside a dialysis membrane (total volume: 0.5 ml), and then the dialysis membrane was placed in a 1.5 ml SBF tube (pH 7.4) and maintained in static conditions at 37° C. At each time point, the porous silica solution loaded with doxorubicin was settled using a centrifuge, and the absorbance (λab=480 nm) of the supernatant was measured to determine an amount of released doxorubicin.
# The solution was maintained in a dynamic condition of performing horizontal agitation at 200 rpm and 37° C.
# […] of porous silica particles loaded with sorafenib (0.1 Mg) were dispersed in 10 ml of 1×PBS. […] At each time point, the porous silica solution loaded with sorafenib was settled using a centrifuge, and the absorbance (λab=270 nm) of the supernatant was measured to determine an amount of released sorafenib. […]
compound,measurement,value
CC1=C(/C=C/C(C)=C/C=C/C(C)=C/C(=O)O)C(C)(C)CCC1 [retinoic acid],time for release of almost 100%,about 10 days
